Laboratory results published in publication PMC7755398.
Results are given in words; binding and its absence hold for the method and conditions named. A result given as binding can be weak or reduced; the word gives no strength. Where a sequence is shown, tags or fusion partners need not be part of it.

Target: T1, PAR-6 PDZ domain fused to the Gal4 DNA binding domain (C. elegans) (UniProt Q9NAN2)
T1 sequence: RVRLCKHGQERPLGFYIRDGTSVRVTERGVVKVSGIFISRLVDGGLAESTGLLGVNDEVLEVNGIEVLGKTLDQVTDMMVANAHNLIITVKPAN
Experiment: two-hybrid; Gal4 system in diploid S. cerevisiae (Y8930 x Y8800); DB::PAR-6 PDZ as bait, AD::NOCA-1d as prey; growth on -Leu -Trp -His + 2 mM 3-AT and on -Leu -Trp -Ade plates; cycloheximide plate as test for self-activation

binding: binds
Substance: full-length NOCA-1d fused to the Gal4 activation domain (from UniProt G5EEK3-4)
